# Test results as given in PubChem BioAssay AID2685 (National Center for Advancing Translational Sciences (NCATS), 2010).
# Hit rate of the full screen: of about 320,000 compounds, about 2,100 (0.66%) were called active. Inconclusive results, whose numbers are uncertain, are shown with a selection of clear calls. Calls come from the whole dose curve; as a rule, active = well fitted inhibition curve with a large enough effect in the signal ratio, with a control signal flat (not every such curve was filed as active); inconclusive = small, poorly fitted or top-dose-only effect, or effect the other way, or a change in a side signal; inactive = flat fitted curve, though single readings scatter; the % refers to the signal ratio. A potency beside an inconclusive call is a rough fit, not a confirmed value.
# Experiment: qHTS Assay for Lipid Storage Modulators in Drosophila S3 Cells
# Settings: BODIPY lipid droplet fluorescence, 18-24 h, cells fed with added oleic acid; lipid storage change, negative = inhibition: at 46.1 µM (top of the series) unless noted
# In short: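 Drosophila S3 cells loaded with oleic acid (400 uM, as added) and compounds at several concentrations; lipid droplets imaged by 488-nm laser-scanning cytometry, 500–530 nm intensity and object ratio to cell channel. Percent activity normalized to 20 uM Triacsin C.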
# % is set by controls: 0 for no effect and ±100 for the full control effect; potency is the fitted concentration of half-maximal effect.
SMILES,Potency,"lipid storage change, negative = inhibition"
CNCCCOc1ccc(C)cc1Br,active: 20.6 µM,
Cc1nn(-c2ccc(C(=O)NCC(c3ccco3)N3CCCC3)cc2)c(C)c1Cl (configuration not stated),,inconclusive: -0.755%
COc1ccc(-c2cn3c(C)c(C(=O)N4CCN(c5ccc(F)cc5)CC4)sc3n2)cc1,,inconclusive: 12%
COc1ccc(N(CC(=O)NCCSCc2cccc(Cl)c2)S(C)(=O)=O)cc1Cl,"inconclusive: 29.1 µM [falling, single point]",
O=C(NCc1ccc(F)cc1)C1CCCN1C(=O)Nc1ccccc1 (configuration not stated),,inconclusive: 2.36%
COc1cccc(NC(=O)c2cc(CN3C(=O)c4ccccc4C3=O)ccc2OC)c1,,inconclusive: -8.79%
Cc1ccc2nc(Cl)nc(-c3ccccc3)c2c1,,inconclusive: 13.5%
CC(NC(=O)CN1C(=O)NC2(CCCC2)C1=O)c1ccc2ccccc2c1 (configuration not stated),"inconclusive: 0.0651 µM [falling, full curve, poor fit]",
O=C(c1ccc(S(=O)(=O)Nc2ccc(F)cc2)cc1)N1CCN(c2ccccn2)CC1,,inconclusive: -2.99%
CCOC(=O)c1cccc(N2C(=O)c3ccccc3S2(=O)=O)c1,,inconclusive: 14.6%
CCOc1ccc(Cl)cc1C(c1c(C)[nH][nH]c1=O)c1c(C)[nH][nH]c1=O,"inconclusive: 6.51 µM [activator, single point]",
O=[N+]([O-])c1ccc(Nc2cccc(F)c2)nc1,,inconclusive: -38%
O=C(COC(=O)COc1ccc(Cl)cc1)NC1CCCC1,"inconclusive: 1.84 µM [activator, full curve]",
CS(=O)c1nc(-c2ccc(Br)cc2)cc(-c2ccccc2)c1C#N (configuration not stated),,inconclusive: 39.4%
CN1CCN(c2ccc(NC(=O)c3sc4ccccc4c3Cl)cc2)CC1,,inconclusive: 54.1%
O=C(NCCS(=O)(=O)N1CCCCCC1)c1ccc(F)cc1,"inconclusive: 6.51 µM [falling, single point]",
O=C(Nc1ccccc1)n1ccc(-c2ccc(-n3ccnc3)cc2)n1,,inconclusive: -5.72%
O=C(Nc1ccccc1F)C(=O)Nc1cccc2ccccc12,,inconclusive: -6.54%
O=C(c1ccc2ccccc2n1)N1CCN(c2ccccc2O)CC1,,inconclusive: 9.98%
COc1ccc2[nH]c(=O)c(CN(C)C(=O)C3CCCCC3)cc2c1,,inconclusive: 27%
CCOc1ccccc1NC(=O)CSc1nc2ccccc2nc1N1CCOCC1,"inconclusive: 0.164 µM [activator, full curve, poor fit]",
CN(C)C1=NC[C@H](Cc2ccccc2)N1CCc1cccc(F)c1,"inconclusive: 3.26 µM [falling, partial curve]",
COc1ccc(-c2noc(-c3ccccc3C(=O)N3CCOCC3)n2)cc1,"inconclusive: 6.51 µM [falling, single point]",
COc1ccc2c(c1)O[C@H](c1ccc3c(c1)OCO3)[C@@H](OC(=O)N[C@H]1CCCc3ccccc31)C2=O,"inconclusive: 2.59 µM [activator, partial curve]",
CCc1ccc(NC(=O)CSc2nc3nc(C)cc(C)n3n2)cc1,"inconclusive: 29.1 µM [cytotoxic, single point]",
Cc1nc(C)c(-c2ccc(SCc3ccccc3C)nn2)s1,"inconclusive: 3.26 µM [activator, single point]",

SMILES,Potency,"lipid storage change, negative = inhibition"
COc1cc(/C=C/C(C)=O)cc(OC)c1OC,,inconclusive: 56%
CCCN(CCC)C(=O)c1ccc2c(c1)S(=O)(=O)c1ccccc1C2=O,,inconclusive: -83.4%
O=C1Nc2ccccc2/C1=N/N=C/c1ccc(-c2ccc([N+](=O)[O-])cc2)o1,"inconclusive: 0.164 µM [activator, partial curve, poor fit]",
Cc1nc2ccc(NC(=O)c3ccc([N+](=O)[O-])cc3)cc2[nH]1,"inconclusive: 29.1 µM [falling, single point]",
O=C(CN1C(=O)NC2(CCCC2)C1=O)OCc1ccc(Br)cc1,,inconclusive
CN(CC(=O)Nc1ccc(F)cc1)C(=O)c1ccccc1Sc1ccccc1C#N,,inconclusive: -31.5% [at 0.0737 µM]
COc1ccccc1N1CCN(C(=O)CC(NC(=O)c2ccccc2Cl)c2ccccc2)CC1 (configuration not stated),,inconclusive
CCSC1=C(C#N)C(c2cccc(O)c2)CC(=O)N1 (configuration not stated),,inconclusive: 61.4% [activator]
OCCC1CN(Cc2cccn2-c2nccs2)CCN1CCc1ccccc1 (configuration not stated),,inconclusive: 21.8%
O=C(CSc1ccccn1)Nc1ccccc1F,,inconclusive: 5.18%
CC(=O)CCC(=O)c1ccc2ccccc2c1,"inconclusive: 11.6 µM [activator, partial curve, poor fit]",
CN(C)c1nc(C(=O)Nc2ccccc2)nc(N(C)C)n1,"inconclusive: 9.2 µM [activator, partial curve]",
CCOc1ccc(C(=O)COC(=O)c2cc([N+](=O)[O-])ccc2N2CCOCC2)cc1,,inconclusive: 25.1%
Cc1ccc(N2C(=O)CC(C)(C)CC2=O)cc1Cl,,inconclusive: 43.5%
Cc1nc2c(C(=O)N3CCCCC3)cnn2c(C)c1Cc1ccccc1F,,inconclusive: -38%
CC(Sc1n[nH]c(-c2cccs2)n1)C(=O)Nc1ccccc1F (configuration not stated),,inconclusive: 21.7%
CC(C)c1nc2sc3ccccc3c(=O)c2c(=O)n1Cc1ccccc1,,inconclusive: 10.3%
Cc1c(OC(C)C(=O)NCC(O)c2ccccc2)ccc2c3c(c(=O)oc12)CCCC3 (configuration not stated),active: 29.1 µM,
Clc1ccc(Cc2nnc(-c3ccccc3Br)o2)cc1,,inconclusive: 33.8%
O=C(CSc1nc(O)cc(=O)n1-c1ccccc1)c1ccc(Br)cc1,,inactive: 26.5% [at 9.22 µM]
c1ccc(CCC2=NCCn3cccc32)cc1,,inconclusive: 43.2%
C/C(=N\NC(=O)c1ccccc1)c1ccc(N2CCCCC2)cc1,,inconclusive: 11.5%
Cc1c(C(=O)N2CCc3ccccc3C2)oc2ccc(S(=O)(=O)N3CC(C)CC(C)C3)cc12 (configuration not stated),,inconclusive: -6.81%
O=C(NCC1CCCO1)C1CCCCN1S(=O)(=O)c1ccc(F)cc1 (configuration not stated),"inconclusive: 32.6 µM [falling, single point]",
O=C(NC1CCCN(Cc2ccc(Cl)cc2)C1)C1CCC1 (configuration not stated),,inconclusive: 40.9%
N/C(Cn1cncn1)=N\OC(=O)c1ccc(Cl)cc1,,inconclusive: -21.6%

SMILES,Potency,"lipid storage change, negative = inhibition"
COC(=O)c1ccccc1NC(=O)CN(C)S(=O)(=O)c1ccc(OC)c(C)c1,"inconclusive: 18.4 µM [activator, partial curve]",
O=C(Cn1c(=O)n(Cc2ccco2)c(=O)c2c3c(sc21)CCCCC3)c1ccccc1,,inconclusive: 23.5%
CCOC(=O)C1CCN(C(=O)CCc2c(C)nc3ncnn3c2C)CC1,,inconclusive: -27.3%
CC(=O)Nc1cccc(NC(=O)c2cccc(S(=O)(=O)N3CCN(Cc4ccccc4)CC3)c2)c1,,inconclusive: 40%
C=CCn1c(SCC(=O)N2CC(C)OC(C)C2)nnc1-c1ccncc1 (configuration not stated),"inconclusive: 0.206 µM [falling, full curve]",
COc1ccc(-c2noc(C(=O)NCc3ccccc3Cl)n2)cc1OC,,inconclusive: 37.6%
CC(=O)c1cccc(OCc2cc(C(=O)N(C)Cc3ccc(C)o3)no2)c1,,inconclusive: -35.6%
CC1CC(C)CN(S(=O)(=O)c2ccc(NC(=S)NC(=O)c3ccccc3)cc2)C1 (configuration not stated),"inconclusive: 2.31 µM [activator, partial curve]",
Cc1ccc(S(=O)(=O)N(C)C)cc1NC(=O)c1ccncc1,,inconclusive: 42.3%
C/C(=N\OCC(=O)OCC(=O)N(C)c1ccccc1)c1ccc2c(c1)OCO2,,inconclusive: 5.77%
COC(=O)c1nnn(-c2ccc(Cl)c(Cl)c2)c1C(=O)OC,,inconclusive: 1.65%
CN(c1ccccc1)S(=O)(=O)c1cccc(NC(=O)c2cncc(Br)c2)c1,,inconclusive: -11.2%
N=c1c(C(=O)NC2CCCC2)cc2c(=O)n3ccccc3nc2n1CCCN1CCOCC1,"inconclusive: 29.1 µM [falling, single point]",
Cn1cnc2c1c(=O)n(CC(O)CO)c(=O)n2C (configuration not stated),,inconclusive: -1.61%
COCCNC(=O)CN1CCC(NC(=O)Nc2ccccc2)CC1,,inconclusive: -2.34%
COc1ccc(C(=O)N2CCCC(CO)(Cc3ccccc3C)C2)o1 (configuration not stated),"inconclusive: 7.31 µM [falling, partial curve, poor fit]",
CCC(C(=O)O)N1C(=O)/C(=C/c2cccn2C)SC1=S (configuration not stated),,inconclusive: -26.1%
O=C1/C(=C/c2ccc(F)cc2)SC(=S)N1N1CCOCC1,,inconclusive: -26.9%
Cc1ccsc1C(=O)OCC(=O)Nc1cccc(F)c1,"inconclusive: 11.6 µM [activator, partial curve, poor fit]",
Cc1nn(-c2cc(N3CCCC3)ccc2[N+](=O)[O-])c(=O)c2ccccc12,"inconclusive: 5.8 µM [falling, full curve]",
O=C(O)CSCC(=O)N1CCCCC1,,inconclusive: -15.8%
Cc1ccc(S(C)(=O)=O)cc1C(=O)Nc1ccc(S(=O)(=O)Nc2nccs2)cc1,,inconclusive: 19%
COc1ccc(CCNC(=O)CCNC(=O)c2ccco2)cc1OC,,inconclusive: -3.58%
Cc1cnc(NC(=O)c2cc3c(C)nn(-c4ccccc4)c3s2)s1,"inconclusive: 0.259 µM [rising, full curve]",
CCOC(=O)Nc1cc(OCC)c(NC(=O)C2CC2)cc1OCC,,inconclusive: -70.8%

# Three compounds picked at random from those above:
SMILES,Potency,"lipid storage change, negative = inhibition"
O=C(c1ccc(S(=O)(=O)Nc2ccc(F)cc2)cc1)N1CCN(c2ccccn2)CC1,,inconclusive: -2.99%
Cc1ccc(S(=O)(=O)N(C)C)cc1NC(=O)c1ccncc1,,inconclusive: 42.3%
O=C(COC(=O)COc1ccc(Cl)cc1)NC1CCCC1,"inconclusive: 1.84 µM [activator, full curve]",

# 3 structures out of the list, ordered by SMILES length, low to high.
SMILES,Potency,"lipid storage change, negative = inhibition"
CC(=O)c1cccc(OCc2cc(C(=O)N(C)Cc3ccc(C)o3)no2)c1,,inconclusive: -35.6%
C/C(=N\OCC(=O)OCC(=O)N(C)c1ccccc1)c1ccc2c(c1)OCO2,,inconclusive: 5.77%
N=c1c(C(=O)NC2CCCC2)cc2c(=O)n3ccccc3nc2n1CCCN1CCOCC1,"inconclusive: 29.1 µM [falling, single point]",
